The results in this text go back to patent US20090324491A1.

These are yes or no findings as the source states them, for the method shown. Some results given as binding are weak or reduced against the parent protein; the word gives no strength.

In assay [1] the target is T1, full-length human EREG (epiregulin) (human) (UniProt O14944).
T1 sequence: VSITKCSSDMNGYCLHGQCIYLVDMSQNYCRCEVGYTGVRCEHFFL
The experiment in a line: flow cytometry on EREG_DG cells (FIG. 3). In general terms: A flow cytometer gives signals particle by particle.

Assay [2] deals with T1, full-length human EREG (epiregulin) (human). The experiment in a line: flow cytometry on DLD1 human colon cancer cells (FIG. 4).
Assay [3] shares this target. The experiment in a line: immunohistological staining of clinical colon cancer tissue array, 50 µg/mL antibody (FIG. 20).

B1: anti-EREG mouse monoclonal antibody EP20 (B2#30) (antibody, mouse IgG1, V domains shown)
VH: QVQLQQSGAELVRPGVSVKISCKGSGYTFTVYSLHWVKQSHARSLEWIGVISTYYGDAIYNQKFKGKATMTVDKSSSTAYMELARLTSEDSAIYYCAREGNGNPLDYWGQGTTLTVSS
VL: QIVLTQSPAIMSASLGERVTMTCTASSSVSSSYLHWYQQKPGSSPKLWIYSTSNLASGVPARFSGSGSGTSYSLTITNMEAEDSATYYCHQYHRSPLTFGAGTKLELK
With B1, the binding result in assay [1] and in assay [2] was “binds” throughout.

B2: anti-EREG mouse monoclonal antibody EP29 (B3#41) (antibody, mouse IgG1, V domains shown)
VH: EVQLQQSGTVLARPGASVKMSCKASGYTFTSYWMHWVKQRPGQGLEWIGAIYPGNSDSYNQKFKGKAKLTAVTSTSTAYMELSSLTNEDSAVYYCTSVMAYWGQGTSVTVSS
VL: DIQMTQSPSSLSASLGERVSLTCRASQDIGNSLNWLQQEPDGTIKRLIYATSNLDSGVSKRFSGSRSGSDYSLTISSLESEDFVDYYCLQYASSPWTFGGGTKLEIK
For the molecule B2, the binding entry in assay [1] and in assay [2] was “binds” each time.

B3: anti-EREG mouse monoclonal antibody EP27 (B3#18) (antibody, mouse IgG2b, V domains shown)
VH: EDQLQQSGAELVKPGASVKLSCTASGFNIKDTYIQWVKLRPEQGLEWIGRIDPLNGNTKYVPKFQGKATITADTSSNTAYLQLSSLTSEDTAVYYCVRSGTLFDFWGQGTTLTVSS
VL: DIQMTQSPSSLSASLGGKVTITCKASQDIHKYIAWYQHKPGKGPRLLIQYTSTLQPGIPSRFSGSGSGRDYSFSISNLEPEDIATYYCLQYDNLRTFGGGTKLEIK
Consider B3, for which the binding entry in assay [1], in assay [2] and in assay [3] was “binds” in each case.
